Assay results as given in paper PMC6030205.
These are yes or no findings as the source states them, for the method shown. In cells and extracts the contact can be indirect. Binding can be weak; no strength is given.

By UniProt entry, the sequences of proteins in these tests, tags left out. Where a name states a change or a piece, a line headed by the entry shows the natural chain unless it says otherwise.
UniProt Q9C9X5: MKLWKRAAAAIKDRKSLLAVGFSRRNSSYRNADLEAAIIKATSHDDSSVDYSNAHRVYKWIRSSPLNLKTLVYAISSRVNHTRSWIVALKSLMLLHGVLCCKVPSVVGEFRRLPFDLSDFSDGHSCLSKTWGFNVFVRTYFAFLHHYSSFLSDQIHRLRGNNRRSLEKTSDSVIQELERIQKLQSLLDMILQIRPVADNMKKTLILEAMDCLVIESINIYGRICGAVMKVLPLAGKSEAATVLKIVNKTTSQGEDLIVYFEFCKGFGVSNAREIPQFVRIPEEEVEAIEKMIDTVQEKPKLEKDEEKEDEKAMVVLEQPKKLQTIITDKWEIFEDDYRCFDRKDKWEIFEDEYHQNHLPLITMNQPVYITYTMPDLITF

Target: EAP1-RFP (Arabidopsis) (UniProt Q9C9X5)
Experiment: co-IP; total protein of Arabidopsis pollen tubes in NEB buffer (20 mM HEPES pH 7.5, 40 mM KCl, 1 mM EDTA, 1% Triton X-100); GFP-trap or RFP-trap agarose beads, 3 h at 4 C; endogenous REN4 detected by anti-REN4 immunoblot

B1: REN4 (ROP1 enhancer 4), endogenous (protein, UniProt O48716 1-465)
chain: MFTEADSIPRAKYANMMHSDPNLSSTMTQQTEEEYGIRNSSASAVGTGMYDRMSCEGSPMMMSPWNQATPFTQTQWSTVEENLPQNGLIGSLVREEGHIYSLAATKDLLYTGSDSKNIRVWKNLKEFSAFKCNSGLVKAIVISGEKIFTGHQDGKIRVWKVSPKNQSLHKRSGTLPTLKDIFKASLKPRNYVEVKKHRTALWIKHADAVSCLSLNDEQGLLYSASWDRTIKVWRIADSKCLESIPAHDDAVNSVVSTTEAIVFSGSADGTVKAWKRDQQGKYTKHTLMQTLTKQESAVTALAVSKNGAAVYFGSSDGLVNFWEREKQLNYGGILKGHKLAVLCLEVAGSLVFSGSADKTICVWKRDGNIHTCLSVLTGHTGPVKCLAVEADREASERRDKKWIVYSGSLDKSVKVWGVSESFIDMNQMSMMQQQQQQHVISHSEPFMSDGSFSSSAGGASSHRRH
binding: binds
